Laboratory results reported in patent publication US20220062190A1, “Therapeutic Agent and Nutraceutical Compositions And Methods for Making and Using Same” (NUREVELATION, LLC, priority 2020, published 2022).
“Also recorded” adds a separate entry of the source. At least one read-out could not be matched to a standard name with certainty.

Assay: Stability of agent after recovery from sugar dispersion, by mass spectrometry and/or NMR against reference
Format: physicochemical
Conditions: organic cane sugar dispersion heated to about 115° C.; mass spectrometry and/or NMR vs reference

Structure (SMILES): CC(C)OC(=O)C(C)(C)Oc1ccc(C(=O)c2ccc(Cl)cc2)cc1 [Fenofibrate]
- stability of agent after encapsulation / recovery from the dispersion: no decomposition occurred; also recorded: remains stable
